{"source": "patent US4801577A", "about": "(Syntex (U.S.A.) Inc., priority 1987, dated 1989)", "test": "general procedure: Boc solid-phase peptide synthesis; benzhydrylamino-polystyrene resin; diisopropylcarbodiimide / HBt", "settings": "whole synthesis, scale 0.5 mmol"}
{"substance": "N-Ac-D-Nal(2)-D-pCl-Phe-D-Pal(3)-Ser-hArg(CH2 CF3)2 -D-Tyr-Leu-hArg(CH2 CF3)2 -Pro-D-Ala-NH2", "values": [{"measurement": "crude mass", "setting": "acetate salt", "value": 0.5, "unit": "g"}, {"measurement": "isolated mass", "setting": "acetate salt (crude)", "value": 64, "unit": "mg"}]}
